Values of other authors in PMC4018390, “Important Role of CYP2J2 in Protein Kinase Inhibitor Degradation: A Possible Role in Intratumor Drug Disposition and Resistance” (PLoS ONE, 2014).

Tested on: CYP2J2
Conditions: approved drugs identified as CYP2J2 inhibitors; cited from earlier work

Q: With `CCCCc1oc2ccccc2c1C(=O)c1cc(I)c(OCCN(CC)CC)c(I)c1` [amiodarone] as the compound, how does the CYP2J2 inhibition read?
A: Its CYP2J2 inhibition is “CYP2J2 inhibitors”.
